Publication PMC11217289

The chains behind the UniProt entries cited, without tags or fusion partners.
UniProt Q9BRP8: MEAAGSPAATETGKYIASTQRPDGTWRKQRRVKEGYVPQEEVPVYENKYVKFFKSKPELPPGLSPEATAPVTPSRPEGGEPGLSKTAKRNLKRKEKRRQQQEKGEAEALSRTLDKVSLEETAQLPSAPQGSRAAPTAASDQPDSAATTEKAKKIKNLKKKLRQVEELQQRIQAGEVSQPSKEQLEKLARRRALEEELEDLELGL

Target: tetracycline-inducible PYM1-Flag (UniProt Q9BRP8)
Assay: affinity purification with mass spectrometry; PYM1-Flag pull-out from cycloheximide-treated HEK 293/Flp-In/T-Rex cells; MS analysis (Data S1)

binding: binds
B1: endogenous PDCD4 (protein, UniProt Q53EL6 1-469)
chain: MDVENEQILNVNPADPDNLSDSLFSGDEENAGTEEIKNEINGNWISASSINEARINAKAKRRLRKNSSRDSGRGDSVSDSGSDALRSGLTVPTSPKGRLLDRRSRSGKGRGLPKKGGAGGKGVWGTPGQVYDVEEVDVKDPNYDDDQENCVYETVVLPLDERAFEKTLTPIIQEYFEHGDTNEVAEMLRDLNLGEMKSGVPVLAVSLALEGKASHREMTSKLLSDLCGTVMSTTDVEKSFDKLLKDLPELALDTPRAPQLVGQFIARAVGDGILCNTYIDSYKGTVDCVQARAALDKATVLLSMSKGGKRKDSVWGSGGGQQSVNHLVKEIDMLLKEYLLSGDISEAEHCLKELEVPHFHHELVYEAIIMVLESTGESTFKMILDLLKSLWKSSTITVDQMKRGYERIYNEIPDINLDVPHSYSVLERFVEECFQAGIISKQLRDLCPSRGRKRFVSEGDGGRLKPESY

Results are given in words; binding and its absence hold for the method and conditions named. In cells and extracts the contact can be indirect. These calls come from enrichment with a bait or labelling near it, and not all partners need be listed.
